Values quoted from earlier work as cited in patent US7244431B2, “Allergy vaccines and their preparation” (priority 2000, dated 2007).
Some compounds share one wording; it may come from a single statement.

System: Bet v 1-specific human T cells
Settings: presence of Bet v 1-specific T cell epitopes; cited from earlier work

Row | Sequence | T cell epitope
1 | CVDHTNFKYNYSVIEGGPIGDTLEKISNEIK [Peptide P6, Bet v 1-derived synthetic peptide, position aa 75-104, one cysteine added] | comprise sequence motifs which were found to stimulate Bet v 1-specific human T cells
2 | MGVFNYETETTSVIPAARLFKAFIC [Peptide P1, Bet v 1-derived synthetic peptide, position aa 1-24, one cysteine added] | do not contain Bet v 1-specific T cell epitopes
3 | CKAEQVKASKEMGETLLRAVESYLLAHSDAYN [Peptide P5, Bet v 1-derived synthetic peptide, position aa 130-160, one cysteine added] | comprise sequence motifs which were found to stimulate Bet v 1-specific human T cells
4 | DGGSILKISNKYHTKGDHEVKAEQVKASKEC [Peptide P4, Bet v 1-derived synthetic peptide, position aa 110-139, one cysteine added] | comprise sequence motifs which were found to stimulate Bet v 1-specific human T cells
5 | LFPKVAPQAISSVENIEGNGGPGTIKKISFC [Peptide P2, Bet v 1-derived synthetic peptide, position aa 30-59, one cysteine added] | do not contain Bet v 1-specific T cell epitopes
6 | CGPGTIKKISFPEGFPFKYVKDRVDEVDHTN [Peptide P3, Bet v 1-derived synthetic peptide, position aa 50-79, one cysteine added] | do not contain Bet v 1-specific T cell epitopes
